According to patent publication US20210393645A1, “TREATMENT FOR PROGRESSIVE MULTIPLE SCLEROSIS” (UTI LIMITED PARTNERSHIP, priority 2016, published 2021):

Tested on: human neurons
Assay: Iron (FeSO4) mediated neurotoxicity screening, MAP-2 positive neurons counted
Type: cell-based
Conditions: drug 10 μM
Method: Human neurons were isolated from brain tissues of therapeutically aborted 15-20 week old fetuses, in accordance with ethics approval of the University of Calgary ethics committee, after written informed consent of the pregnant donors. Neurons were isolated as previously described (Vecil et al., 2000) brain specimens were washed in phosphate buffered saline (PBS) to remove blood, followed by removal of meninges. […] Thereafter, the digestion was stopped by addition of 4 ml fetal calf serum (FCS). […] Cells were cultured in feeding medium of minimal essential medium (MEM) supplemented with 10% fetal bovine serum (FBS), 1 μM sodium pyruvate, 10 μM glutamine, 1× non-essential amino acids, 0.1% dextrose and 1% penicillin/streptomycin (all culture supplements from Invitrogen, Burlington, Canada). […] For experiments, the neuron-enriched cultures were retrypsinized and cells were plated in poly-L-ornithine pre-coated 96-well plates at a density of 100,000 cells/well in 100 μl of the complete medium supplemented with cytosine arabinoside. […] All conditions were performed in quadruplicates. […]
Images were taken using the automated ImageXpress® imaging system (Molecular Devices, Sunnyvale, Calif.) through a 10x objective microscope lens, displaying 4 or 9 sites per well. […] Cells were defined according to fluorescence intensity and size at different wavelengths. […]

Q: Which “protection from FeSO4-mediated neurotoxicity (in words)” value does the source give for `CC(C)NCC(O)COc1ccc(CC(N)=O)cc1` (stereo not shown) [ATENOLOL] here?
A: The value was “prevented iron-mediated neurotoxicity beyond levels of controls”.
